Assay results as given in PubChem BioAssay AID493014 (National Center for Advancing Translational Sciences (NCATS), 2011).
The other results are listed elsewhere or left out. Further columns of the screen follow, without active or inactive calls. The list favours compounds with an active or inconclusive main result. Words in brackets tell the shape of the fitted curve; partial curves, single points and poor fits give uncertain potencies.

Assay: qHTS Assay to Find Inhibitors of Chronic Active B-Cell Receptor Signaling
Conditions: ABC-DLBCL IkBa-CBG/CBR reporter, luminescence ratio (green luciferase fused to IkBa over red control in TMD8 lymphoma cells), 4 h
How it was run: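 TMD8 human ABC-DLBCL cells with doxycycline-inducible IκBα–green luciferase fusion and unfused red luciferase, in 0.5% FBS medium; compounds up to 46 uM, 4 h at 37C. Green/red luminescence ratio, filter-overlap corrected, fitted to concentration-response curves.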

[1] = measured here: CBR red luminescence, cell number
[2] = measured here: IkBa-CBG green luminescence

Row | SMILES | AC50 [1] | AC50 [2]
1 | Cc1cccc(N2CCN(C(=O)CCCOc3ccccc3)CC2)c1C | 2.59 µM [rising, partial curve, poor fit] | –
2 | OC(CNCC(c1ccc(Cl)cc1Cl)c1c[nH]c2ccccc12)c1ccccc1 (stereo unspecified) | 31.6 µM [falling, single point] | 35.5 µM [rising, partial curve, poor fit]
3 | CCCCCCOC(=O)Sc1nc2ccccc2o1 | 6.51 µM [falling, single point] | –
4 | OCCC1CN(Cc2ccccc2-c2ccco2)CCN1C1CCCC1 (stereo unspecified) | 8.91 µM [falling, partial curve, poor fit] | –
5 | CCC(C)NCCOCCOc1ccc(Br)cc1 (stereo unspecified) | 5.01 µM [falling, full curve] | –
6 | Cc1nc(NC(=O)c2ccccc2)sc1-c1csc(NCc2ccccc2)n1 | 29.1 µM [falling, single point] | –
7 | CCc1ccc(S(=O)(=O)Nc2cc3c(cc2N2CCCCC2)n(C)c(=O)c(=O)n3C)cc1 | 35.5 µM [falling, single point] | –
8 | CC1CCCCN1c1nnc(N)s1 (stereo unspecified) | 2.82 µM [falling, partial curve, poor fit] | –
9 | COc1cccc(/C=N/Nc2nc3ccccc3[nH]2)c1OC | 2 µM [falling, full curve, poor fit] | –
10 | Clc1cccc(CSc2ccc(-c3ccco3)nn2)c1 | 6.31 µM [rising, single point] | –
11 | COc1ccc(NC(=O)c2c(NCc3cccc(OC)c3)sc3c2CCCC3)cc1 | 20 µM [falling, single point] | –
12 | CCOC(=O)c1c(N2C(=O)C3CC(C)=C(C)CC3C2=O)sc(C)c1C (stereo unspecified) | 25.9 µM [rising, single point] | –
13 | Cc1nc(-n2[nH]c3c(c2=O)CCCC3)[nH]c(=O)c1Cc1ccccc1 | 35.5 µM [rising, single point] | 35.5 µM [falling, single point]
14 | CCOC(=O)c1ccc(-n2[nH]c(-c3ccccc3)cc2=O)cc1 | 14.6 µM [falling, partial curve] | –
15 | CCOC(=O)C(C)c1c(C(=O)c2ccc(C)nc2)c2ccccc2n1C (stereo unspecified) | 35.5 µM [rising, single point] | –
16 | O=C(COc1cccnc1[N+](=O)[O-])Nc1ccc2c(c1)OCO2 | 14.1 µM [falling, single point] | –
17 | Cc1ccc(C(=O)CCC(=O)NNC(=O)c2ccccc2O)cc1 | 1.16 µM [rising, full curve, poor fit] | –
18 | CCN1CCc2nc3sc(C(=O)c4ccc(F)cc4)c(N)c3cc2C1 | 1.41 µM [falling, full curve] | 0.891 µM [rising, full curve, poor fit]
19 | CC(=O)c1cn(CC(=O)NCc2cccnc2)c2ccccc12 | 2.59 µM [rising, partial curve, poor fit] | –
20 | COc1ccccc1NC1=NC(c2ccc(Cl)cc2)N=C(N)N1 (stereo unspecified) | 29.1 µM [rising, single point] | 29.1 µM [falling, single point]
21 | O=C(O)c1ccccc1NC(=S)NC(NC(=O)c1ccccc1[N+](=O)[O-])C(Cl)(Cl)Cl (stereo unspecified) | 10 µM [falling, partial curve, poor fit] | –
22 | Cc1ccc2nc(-c3ccc(SCC(=O)O)nc3)[nH]c2c1 | 11.2 µM [falling, single point] | –

3 compounds from above, sorted by formula weight, ascending.
Row | SMILES | AC50 [1] | AC50 [2]
9 | COc1cccc(/C=N/Nc2nc3ccccc3[nH]2)c1OC | 2 µM [falling, full curve, poor fit] | –
19 | CC(=O)c1cn(CC(=O)NCc2cccnc2)c2ccccc12 | 2.59 µM [rising, partial curve, poor fit] | –
2 | OC(CNCC(c1ccc(Cl)cc1Cl)c1c[nH]c2ccccc12)c1ccccc1 (stereo unspecified) | 31.6 µM [falling, single point] | 35.5 µM [rising, partial curve, poor fit]

Later entries

Row | SMILES | AC50 [1] | AC50 [2]
23 | COc1ccccc1CN1C[C@@H]2C[C@@H](c3cccc(C)c3)N3CCC[C@@]23C1=O | 35.5 µM [falling, single point] | –
24 | CN(C)CCCOc1ccc(C(C)(C)c2ccccc2)cc1 | 8.2 µM [falling, partial curve] | –
25 | CCc1cc(-c2n[nH]c(=S)n2-c2ccccc2C)cs1 | 13 µM [falling, partial curve] | –
26 | COC(=O)c1ccc2c(c1)C(C)(C)C(/C=C/c1ccccc1O)=[N+]2C | 35.5 µM [falling, partial curve, poor fit] | 3.16 µM [falling, partial curve, poor fit]
27 | CC(C)S(=O)(=O)c1csc(NC(=O)Nc2cc(Cl)ccc2Cl)c1Cl | 11.2 µM [falling, partial curve] | –
28 | CCCCOC(=O)c1ccc(NC(=O)C(=O)NCCN(C)C)cc1 | 35.5 µM [rising, single point] | –
29 | O=C(CN1CCN(S(=O)(=O)c2cc(Cl)ccc2Cl)CC1)c1ccc(O)c(O)c1 | 7.08 µM [rising, full curve] | –
30 | Cc1nc2cc(NC(=O)c3ccco3)ccc2n1C | 11.2 µM [falling, partial curve, poor fit] | –
31 | COc1ccc(CNC(=O)CCc2cc(OC)c(OC)c(OC)c2)cc1 | 28.2 µM [rising, single point] | –
32 | Cc1ccc2c(COC(=O)c3cnc(C)cn3)cc(=O)oc2c1 | 6.31 µM [rising, single point] | –
33 | CSc1ccc(CSCC(=O)N2CCN(S(=O)(=O)c3ccc(C)cc3C)CC2)cc1 | 20.6 µM [falling, single point] | –
34 | O=C(Nc1cccc(Br)c1)c1cc2ccccc2o1 | 11.2 µM [falling, partial curve] | –
35 | COc1ccc(CNC(=O)c2ccc(N3CCOCC3)c([N+](=O)[O-])c2)cc1 | 0.251 µM [rising, full curve, poor fit] | –
36 | Clc1cccc(-n2ncc3c(NCCCn4ccnc4)ncnc32)c1 | 11.2 µM [falling, partial curve, poor fit] | –
37 | c1ccc(-c2nc3nc4ccccc4nc3n2Cc2ccco2)cc1 | 8.91 µM [falling, partial curve, poor fit] | –
38 | COc1ccc(-c2cc(C(=O)N3CCc4ccccc4C3)no2)cc1OC | 20 µM [falling, single point] | –
39 | Cc1ccc2cc(C=O)c(Cl)nc2c1 | 35.5 µM [falling, single point] | –
40 | COc1ccc(-c2csc(-c3ccccc3)n2)c(OC)c1 | 1.12 µM [rising, partial curve, poor fit] | –
41 | CCNC(=S)NNC(=O)c1cc(-c2ccc(OCC)cc2)nc2ccccc12 | 7.94 µM [falling, partial curve, poor fit] | –
42 | O=C(Nc1ccc(NC(=O)c2cccs2)cc1Cl)c1ccco1 | 0.1 µM [falling, full curve, poor fit] | –
43 | COc1ccccc1NC(=O)CN(c1ccccc1C)S(C)(=O)=O | 35.5 µM [falling, single point] | –
44 | CCc1ccc(NC(=O)CSc2nc3ccccc3nc2N2CCCCC2)cc1 | 11.2 µM [rising, partial curve, poor fit] | –

Row | SMILES | AC50 [1] | AC50 [2]
45 | CCOC(=O)c1sc2nc3c(cc2c1N)COC(C)(C)C3 | 5.8 µM [falling, full curve] | 5.17 µM [rising, partial curve, poor fit]
46 | CCn1c(C)nc2cc(C(=O)NNC(=S)Nc3ccc(F)cc3)ccc21 | 4.47 µM [rising, single point] | –
47 | C=CCNc1oc(-c2cccc3ccccc23)nc1C#N | 16.4 µM [rising, partial curve, poor fit] | –
48 | O=C(N/N=C/c1ccc(N2CCOCC2)o1)c1cccc(F)c1 | 29.1 µM [falling, single point] | –
49 | CC(CN1CCOCC1)OC(=O)c1cccc(Cl)c1 (stereo unspecified) | 35.5 µM [rising, partial curve, poor fit] | –
50 | COc1cc(CNCc2cccnc2)ccc1OCC(=O)NC1CCCCC1 | 6.31 µM [falling, single point] | –
51 | Cc1cc(C)c2c(=O)[nH]c(SCC(=O)c3ccc(C)c(C)c3)nc2n1 | 1.41 µM [falling, full curve, poor fit] | –
52 | O=C(/C=C/c1ccc2c(c1)OCO2)c1ccco1 | 25.9 µM [falling, single point] | –
53 | Cc1cc(Nc2ccc(N3CCOCC3)cc2)c2cccc(C)c2n1 | 14.1 µM [falling, single point] | –
54 | CCOc1ccc(C(CCc2ccccc2)NC(=O)c2ccccc2)cc1OCC (stereo unspecified) | 29.1 µM [rising, single point] | –
55 | O=C(COC(=O)C1CC2CCCC(C1)C2=O)Nc1ccc(F)c(Cl)c1 (stereo unspecified) | 18.4 µM [falling, partial curve, poor fit] | –
56 | CCc1ccc(N2C(=O)CN(Cc3cc(OC)c(OC)c(OC)c3)C2=S)cc1 | 18.4 µM [falling, single point] | –
57 | C=CCc1c(C)nc2c(-c3ccccc3)cnn2c1N1CCOCC1 | 0.112 µM [rising, full curve, poor fit] | –
58 | CCOC(=O)c1cnc2ccc(OCC)cc2c1N1CCN(C)CC1 | 35.5 µM [falling, single point] | –
59 | CC(=O)N(C)c1ccc(NC(=O)Nc2cccc3ccccc23)cc1 | 10 µM [falling, partial curve] | –
60 | CC(CC(=O)Nc1cc([N+](=O)[O-])ccc1Cl)c1ccccc1 (stereo unspecified) | 2.51 µM [rising, full curve, poor fit] | –
61 | Cc1ccc(SCC(=O)NCCN2C(=O)CSC2=O)c(C)c1 | 3.66 µM [rising, single point] | –
62 | COC(=O)c1ccc(NC(=O)C2CCCN2S(=O)(=O)c2ccc(OC)cc2)cc1 (stereo unspecified) | 6.51 µM [rising, full curve, poor fit] | –
63 | Cc1cccc2cc(CN(CCN3CCOCC3)C(=O)NCc3ccccc3)c(=O)[nH]c12 | 5.8 µM [falling, partial curve, poor fit] | –
64 | CCc1ccc(S(=O)(=O)/N=C2\C=C(Nc3ccc(C(=O)O)cc3)C(=O)c3ccccc32)cc1 | 2.24 µM [falling, full curve, poor fit] | 8.91 µM [rising, partial curve, poor fit]
